Experimental data taken from article PMC11014671, “Small molecules that disrupt RAD54-BLM interaction hamper tumor proliferation in colon cancer chemoresistance models” (The Journal of Clinical Investigation, 2024).

Columns and labels:
[1] = target: T1, RAD54 (endogenous, human cells) (human (endogenous in HCT116, CCD 841 CoN, HEK293T)) (UniProt Q92698); assay: proximity ligation; Duolink In Situ Red kit with antibodies against BLM and RAD54 on HCT116 and CCD 841 CoN cells (hypotonic lysis buffer, fixed with ice-cold ethanol); PLA foci per nucleus counted by confocal microscopy
T1 sequence: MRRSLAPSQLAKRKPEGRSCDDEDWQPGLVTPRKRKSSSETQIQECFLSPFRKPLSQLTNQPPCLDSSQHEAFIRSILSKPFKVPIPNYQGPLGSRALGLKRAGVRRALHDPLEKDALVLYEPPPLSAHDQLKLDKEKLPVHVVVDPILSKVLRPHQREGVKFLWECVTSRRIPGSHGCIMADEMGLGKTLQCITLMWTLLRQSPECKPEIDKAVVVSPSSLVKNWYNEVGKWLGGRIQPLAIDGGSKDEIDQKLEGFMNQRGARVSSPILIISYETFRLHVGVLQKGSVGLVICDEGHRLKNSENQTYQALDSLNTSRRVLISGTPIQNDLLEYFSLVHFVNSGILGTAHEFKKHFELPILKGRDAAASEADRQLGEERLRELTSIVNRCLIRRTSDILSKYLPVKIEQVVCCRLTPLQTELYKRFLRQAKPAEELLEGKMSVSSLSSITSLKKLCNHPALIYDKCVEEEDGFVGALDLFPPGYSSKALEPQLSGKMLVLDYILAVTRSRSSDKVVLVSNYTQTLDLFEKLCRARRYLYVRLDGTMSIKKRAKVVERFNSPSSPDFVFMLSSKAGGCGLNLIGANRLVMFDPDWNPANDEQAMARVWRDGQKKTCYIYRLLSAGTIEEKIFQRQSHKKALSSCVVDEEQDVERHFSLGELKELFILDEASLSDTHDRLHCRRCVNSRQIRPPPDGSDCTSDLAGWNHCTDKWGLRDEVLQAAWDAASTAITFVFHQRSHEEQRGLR

[2] = target: T1, RAD54 (endogenous, human cells) (human (endogenous in HCT116, CCD 841 CoN, HEK293T)); assay: co-IP; lysates of HCT116 IC60 CPT^R cells (beside parental HCT116); immunoprecipitation with anti-RAD54 antibodies, immunoprecipitates probed with anti-BLM antibody
[3] = target: T1, RAD54 (endogenous, human cells) (human (endogenous in HCT116, CCD 841 CoN, HEK293T)); assay: co-IP; lysates of HCT116 (human) or CT26 (murine) cells immunoprecipitated with anti-RAD54 antibodies, immunoprecipitates probed with anti-BLM antibodies; anti-IgG as control
His RAD54 (1-747) (WT) = target: T2, His RAD54 (1-747) (WT) (UniProt Q92698); assay: pull-down; His-RAD54 bound (Ni-NTA resin), incubated with soluble GST BLM wildtype or GST BLM (Δ181-212); bound protein detected by immunoblot; both purified
T2 sequence: T1 sequence

[4] = target: BLM helicase (endogenous, human cells) (human (endogenous in HCT116)); assay: proximity ligation; endogenous BLM and RAD54 in CCD 841 CoN (normal colon epithelial) and HCT116 cells
[5] = target: BLM (endogenous, human cells) (human (endogenous in HCT116, CCD 841 CoN, HEK293T)); assay: co-IP; lysates of HEK293T cells left untreated or treated with 100nM C3, C7, C17 for 72 hours; immunoprecipitation with anti-BLM antibody, westerns with anti-BLM and anti-RAD54 antibodies
GFP BLM WT = assay: co-IP; lysates of HCT116 BLM-/- cells transfected with tagged BLM constructs; immunoprecipitation of the tagged BLM (anti-GFP antibodies), probed for RAD54
GFP BLM (aa Δ181–212) = assay: as above

binding [1]: binds | binding [2]: binds | binding [3]: binds
Molecule: BLM (endogenous, human cells)

binding (His RAD54 (1-747) (WT)): binds
Molecule: GST BLM (1-1417) (WT) (human)

binding [4]: binds | binding [5]: binds | binding (GFP BLM WT): binds | binding (GFP BLM (aa Δ181–212)): no binding
B1: RAD54 (endogenous, human cells) (protein, UniProt Q92698 1-747)
chain: T1 sequence

Results are given in words; binding and its absence hold for the method and conditions named. For some assays here: Binding can be weak; no strength is given. For some assays here: Where a sequence is shown, tags or fusion partners need not be part of it. For some assays here: In cells and extracts the contact can be indirect. One block for each molecule: values may come before it.
